Test results reported in PubChem BioAssay AID488840 (Broad Institute, 2010).
In all, about 1,400 compounds went through this assay and about 45 (3%) were called active.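 Rule for the calls: active = half-maximal dose of signal decrease from fit no higher than ten times the top valid tested dose; inconclusive = fit invalid, or curve flat with 30 to 70% inhibition; inactive = the rest.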 This is one part of the list. Results with a measured potency or affinity are listed apart.

Amino acid sequences for entries named in this document (tags omitted). A change or cut given only in a name is not applied to a line headed by its entry.
UniProt O75164: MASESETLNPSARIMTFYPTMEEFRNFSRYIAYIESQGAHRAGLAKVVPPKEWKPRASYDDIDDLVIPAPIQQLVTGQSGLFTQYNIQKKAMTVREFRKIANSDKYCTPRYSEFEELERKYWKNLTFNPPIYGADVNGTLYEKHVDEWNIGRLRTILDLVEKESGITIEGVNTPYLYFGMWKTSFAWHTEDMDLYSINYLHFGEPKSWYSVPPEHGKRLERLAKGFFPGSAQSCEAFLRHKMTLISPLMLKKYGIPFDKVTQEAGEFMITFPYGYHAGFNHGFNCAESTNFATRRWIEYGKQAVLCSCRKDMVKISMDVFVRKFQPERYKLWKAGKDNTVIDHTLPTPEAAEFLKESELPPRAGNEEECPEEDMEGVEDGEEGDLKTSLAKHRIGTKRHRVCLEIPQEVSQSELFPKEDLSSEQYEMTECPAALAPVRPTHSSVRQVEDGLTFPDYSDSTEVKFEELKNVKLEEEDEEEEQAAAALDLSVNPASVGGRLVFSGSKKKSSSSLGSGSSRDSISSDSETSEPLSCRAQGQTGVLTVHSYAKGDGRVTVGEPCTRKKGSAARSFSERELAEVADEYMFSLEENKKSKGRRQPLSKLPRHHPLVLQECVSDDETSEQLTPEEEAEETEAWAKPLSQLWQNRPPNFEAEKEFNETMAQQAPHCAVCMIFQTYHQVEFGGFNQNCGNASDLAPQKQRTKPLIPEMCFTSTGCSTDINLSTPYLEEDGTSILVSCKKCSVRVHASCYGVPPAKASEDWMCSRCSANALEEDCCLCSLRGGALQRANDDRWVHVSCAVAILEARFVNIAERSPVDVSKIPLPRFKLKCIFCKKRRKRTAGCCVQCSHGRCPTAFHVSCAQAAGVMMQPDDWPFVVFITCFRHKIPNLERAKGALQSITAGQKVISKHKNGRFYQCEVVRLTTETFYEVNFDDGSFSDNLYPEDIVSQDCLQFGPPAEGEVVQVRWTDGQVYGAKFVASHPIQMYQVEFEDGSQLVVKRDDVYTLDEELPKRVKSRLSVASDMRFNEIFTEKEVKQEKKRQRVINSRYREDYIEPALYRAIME

What follows are molecules tested against Lysine-specific demethylase 4A (Homo sapiens) (UniProt O75164) (assay: JMJD2A histone demethylase inhibitors, dose response, selectivity assay for GASC-1 inhibitor project, biochemical, DELFIA europium, cherry-picked samples (AID 488840;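 note: europium signal reports the dimethyl H3K9 product detected by antibody so inhibitors lower it; 0% = median of neutral control wells and -100% = median of positive control wells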)). Settings: GST-JMJD2A(1-420) H3K9me3 demethylation; at 6 µM (top of the series) unless noted.

Activity change, negative = inhibition, inactive:
Cc1ccc(NC(=O)COC(=O)CCc2c[nH]c(=O)[nH]2)cc1 1.03%
N#Cc1c(N2CCCCC2)nc(N)c2c(N)nc(SCC(=O)O)cc12 0.063%
O=C(C/C=N/OCc1ccc(Cl)cc1Cl)c1ccccc1 6.27%
C[C@@]12C(=O)Nc3ccc(Cl)cc3C(=O)N1[C@H]1c3cc(Br)ccc3OC[C@@H]1[C@@H]2c1ccccc1 1.94%
CN(c1ccc(OCC(=O)N2CCCCC2)cc1)S(=O)(=O)c1cccs1 -7.23%
CCC(NS(=O)(=O)c1cccs1)c1ccc(C)cc1 (stereo not drawn) 1.52%
Cc1cccc(C)c1N1C(=O)c2cccc([N+](=O)[O-])c2C1=O 2.35%
O=C(Nc1nc2c(s1)C(=O)CCC2)c1ccccc1 -2.57%
O=C(COc1ccc(Cl)cc1)NCCCn1ccnc1 1.24%
CCOC(=O)Cn1nc(C)c2c1CCCC2=O -1.59%
O=C(CCSCc1ccccc1F)NCCc1ccccc1 2.55%
Fc1cccc(/C=N/Nc2nc3ccccc3[nH]2)c1 0.443%
O=C(COC(=O)c1ccco1)NNC(=O)c1ccc(Cl)cc1 -1.66%
COc1c(Cl)cc(Cl)cc1/C=C/C(=O)c1ccc(NC(=O)c2cccs2)cc1 7.25%
Cc1nc(-c2ccc(C(=O)N3CCCC3)cc2)cs1 5.39%
CC(C)(C)OC(=O)C[C@@H]1C/C=C\C[C@H](CC(=O)N[C@H](CO)Cc2ccccc2)C(=O)N[C@@H](Cc2ccccc2)COC1=O 0.0527%
CC(C)(C)c1ccc(-c2csc(NNC3=NCCCCC3)n2)cc1 1.81%
Cc1onc(-c2c(F)cccc2Cl)c1C(=O)N1CCN(S(C)(=O)=O)CC1 5.59%
O=C(/C=C\Nc1ccc(Cl)cn1)c1ccc(Br)cc1 -11.2%
COc1cccc(NC(=O)CCN2C(=O)C3CC=CCC3C2=O)c1 (stereo not drawn) -1.22%
CC1=NN(C(=O)Cc2ccccc2)C(O)(c2cccnc2)C1 (stereo not drawn) 2.71%
COC(C(=O)Nc1ccc(NC(=O)C(OC)c2ccccc2)cc1)c1ccccc1 (stereo not drawn) 3.15%
CCN(C[C@H]1N[C@@](Cc2ccccc2)(C(=O)OC)[C@H]2C(=O)N(Cc3ccccc3)C(=O)[C@@H]12)S(=O)(=O)c1ccccc1 -6.78%
COc1ccc(NC(=O)N(C)C[C@H]2Oc3c(NS(=O)(=O)c4cccs4)cccc3C(=O)N([C@@H](C)CO)C[C@@H]2C)cc1 -0.422%
COC(=O)C1CN(S(=O)(=O)c2ccc(C)cc2)CCN1S(=O)(=O)c1ccc(C)cc1 (stereo not drawn) 12.5%
CCCN(CCC)CCNC(=O)CS(=O)Cc1nc(-c2ccc(C)cc2)oc1C (stereo not drawn) -2.48%
Cc1noc(C)c1CCC(=O)N1CCCC(CCC(=O)NCc2ccccc2F)C1 (stereo not drawn) -5.05%
Cc1cc(NC(=O)CCC(=O)N(c2ccccc2)C2(C(=O)NC3CCCCC3)CCCC2)no1 -3.43%
CC(=O)c1c(C)[nH]c(C(=O)NCCC2=CCCCC2)c1C 2.99%
O=C(NCc1cccs1)c1cccnc1C(=O)O 5.03%
O=c1cc(N2CCc3ccccc32)[nH]c(=O)n1-c1ccccc1 4.98%
CCOC(=O)N1CCN(S(=O)(=O)c2ccc3c(c2)CCN3C(=O)C2CC2)CC1 -4.45%
CN1C(=O)/C(=C2\SC(=S)N(C(CCC(=O)O)C(=O)O)C2=O)c2ccccc21 (stereo not drawn) 4.78%
O=C(O)CC(NC(=O)Cc1ccc(Cl)cc1)c1ccco1 (stereo not drawn) -1.11%
CC12CN3CC(C)(CN(C1)C3c1ccc3ccccc3c1O)C2=O (stereo not drawn) 5.64%
CN1CCN(C(=O)CN(c2ccccc2)S(=O)(=O)N(C)C)CC1 1.41%
C/C=C(\C)c1nnc(NC(=O)C(C)C)s1 1.51%
CN(C)c1ccc(C2Nc3ccccc3C(=O)N2CCN2CCNC2=O)cc1 (stereo not drawn) -1.57%
CCc1nc(NCc2ccc3c(c2)OCO3)c2oc3ccccc3c2n1 5.18%
CCOC(=O)N1CCN(C(=S)NC(C)(C)C)CC1 -1.77%
CN(C)C(=O)c1cccc(-c2csc(N3CCC(C(N)=O)CC3)n2)c1 4.05%
O=C1CCCc2c1nc(-c1ccccc1)n2O 0.474%
COC(=O)c1ccc(/C=C/c2c(-c3ccc(OC)cc3)sc3ccccc23)cc1 -2.96%
COC(=O)c1nn(Cc2ccccc2)c(=O)c2ccccc12 -7.25%
O=S(=O)(Nc1ccccc1)c1ccc(NS(=O)(=O)c2c(F)cccc2F)cc1 8.5%
CCOC(=O)C1=C(CSc2nc(-c3ccncc3)ccc2C#N)OC(N)=C(C#N)C1c1cccnc1 (stereo not drawn) 5.11%
COc1ccc2c(C)nc(Nc3nc(C)cc(C)n3)nc2c1 -3.52%
COc1cc2nc(-c3ccccc3C)oc(=O)c2cc1OC 5.38%
C/C(=N\Nc1nc(C(=O)O)cs1)c1ccccc1 1.97%
C=CCn1c(-c2cccc3ccccc23)n[nH]c1=S -1.82%
O=C(CNC(=O)c1ccccc1O)N/N=C/c1cc(Br)ccc1OC(=O)/C=C/c1ccco1 -7.8%
CCCn1nnnc1SCC(=O)NCc1ccc2c(c1)OCO2 0.509%
COC(=O)c1ccc(CSc2nnc(N)s2)o1 2.55%
COc1ccccc1N=Cc1c(C)c(C#N)c2[nH]c3ccccc3n2c1=O 1.5%
C[C@H]1CN([C@@H](C)CO)C(=O)c2cc(NC(=O)C3CCCCC3)ccc2O[C@H]1CN(C)S(=O)(=O)c1ccccc1 1.07%
COC(=O)[C@]1(C)N[C@H](CN(C)C(=O)Nc2ccc(F)cc2)[C@@H]2C(=O)N(C)C(=O)[C@@H]21 -4.71%
COc1ccc(Nc2cccc(Cl)c2)c(C(=O)O)c1 0.373%
Cc1ccsc1C(=O)OCc1nc2ccccc2c(=O)[nH]1 -0.563%

A portion of the results above:
Activity change, negative = inhibition, inactive:
C/C(=N\Nc1nc(C(=O)O)cs1)c1ccccc1 1.97%
C=CCn1c(-c2cccc3ccccc23)n[nH]c1=S -1.82%
O=C(CNC(=O)c1ccccc1O)N/N=C/c1cc(Br)ccc1OC(=O)/C=C/c1ccco1 -7.8%

Retrieved by compound from the entries so far, 2 records:
Activity change, negative = inhibition, inactive:
C/C=C(\C)c1nnc(NC(=O)C(C)C)s1 1.51%
CCCN(CCC)CCNC(=O)CS(=O)Cc1nc(-c2ccc(C)cc2)oc1C (stereo not drawn) -2.48%
